{"source": "patent US20150038473A1", "about": "“STABLE POVIDONE-IODINE COMPOSITIONS WITH STEROIDS OR NON-STEROIDAL ANTI-INFLAMMATORIES” (FORESIGHT BIOTHERAPEUTICS, INC., priority 2011, published 2015)", "assay": "Stability testing of steroids combined with povidone iodine (PVP-I, 0.4%), HPLC/UV with LC-MS/MS confirmation", "procedure": "PVP-I was prepared in water at the concentration of 100 mg/mL (10%). One milliliter of the solution, suspension, or emulsion was mixed with 40 μL of 10% PVP-I in 1.5 mL amber glass vials, followed by storage under both room temperature and 40° C. for 2 weeks and one month. The resultant samples in the presence of PVP-I were analyzed using HPLC. The four steroid levels were measured against the reference standard samples stored under room temperature in the absence of PVP-I (0.4%).\nWeigh 1 g of PVP-I and dissolve in 10 mL of water.\nAliquot 1 mL of ophthalmic solution (USP, 0.1%) into eight amber HPLC vials to give the following samples:\nUsed the resultant samples as time zero samples for HPLC analysis.\nThe same as Method 1 except the gradient was changed as follows: […]\nThe software provided with the HPLC system (LCSolution™ software, version 1.23, installed by SHIMADZU) was used to integrate the peak area.\nThe measured peak area was converted into concentrations (μg/mL) using the following equation: […]\nHPLC Methods: The same as HPLC Method 1, 2, and 3 under Section 2.4.\nThe Day 0, Two Week, and One Month stability test samples were analyzed with reference standard samples (stored at room temperature in the absence of PVP I) using HPLC Method 1.", "key": {"[1]": {"conditions": "2 weeks, 40° C., with PVP-I 0.4%"}, "[2]": {"conditions": "2 weeks, room temp, with PVP-I 0.4%"}, "[3]": {"conditions": "Day 0, room temp, with PVP-I 0.4%, mean of replicates"}, "[4]": {"conditions": "Day 0, room temp, with PVP-I 0.4%, single replicates"}, "[5]": {"conditions": "one month, 40° C. control, stored without PVP-I"}, "[6]": {"conditions": "one month, 40° C., with PVP-I 0.4%, single samples"}, "[7]": {"conditions": "one month, room temp, with PVP-I 0.4%"}}, "note": "Where “and” joins values, the source holds several entries; their conditions need not be identical. Equal entries are not always repeated.", "data": [{"smiles": "C[C@@H]1C[C@H]2[C@@H]3CCC4=CC(=O)C=C[C@]4(C)[C@@]3(F)[C@@H](O)C[C@]2(C)[C@@]1(O)C(=O)COP(=O)([O-])[O-].[Na+].[Na+]", "note": "[Dexamethasone Sodium Phosphate]", "values": [{"measurement": "% of Std", "setting": "[1]", "value": 87.50, "unit": "%"}, {"measurement": "Calc Conc. (calculated concentration in stability samples)", "setting": "[1]", "value": 0.8750, "unit": "mg/mL"}, {"measurement": "% of Std", "setting": "[2]", "value": 85.92, "unit": "%"}, {"measurement": "Calc Conc. (calculated concentration in stability samples)", "setting": "[2]", "value": 0.8592, "unit": "mg/mL"}, {"measurement": "% of Std", "setting": "[3]", "value": 103.46, "unit": "%"}, {"measurement": "Calc Conc. (calculated concentration in stability samples)", "setting": "[3]", "value": 1.0346, "unit": "mg/mL"}, {"measurement": "% of Std", "setting": "[4]", "value": "103.37% and 103.55%"}, {"measurement": "Calc Conc. (calculated concentration in stability samples)", "setting": "[4]", "value": "1.0337 mg/mL and 1.0355 mg/mL"}, {"measurement": "% of Day 0", "setting": "[5]", "value": 92.62, "unit": "%"}, {"measurement": "% of Std", "setting": "[5]", "value": 92.62, "unit": "%"}, {"measurement": "Calc Conc. (calculated concentration in stability samples)", "setting": "[5]", "value": 0.9262, "unit": "mg/mL"}, {"measurement": "Calc Conc. (calculated concentration in stability samples)", "setting": "one month, 40° C., with PVP-I 0.4%, mean of two runs", "value": 0.8700, "unit": "mg/mL"}, {"measurement": "% of Std", "setting": "[6]", "value": "87.34% and 86.66%"}, {"measurement": "Calc Conc. (calculated concentration in stability samples)", "setting": "[6]", "value": "0.8734 mg/mL and 0.8666 mg/mL"}, {"measurement": "% of Std", "setting": "[7]", "value": 87.16, "unit": "%"}, {"measurement": "Calc Conc. (calculated concentration in stability samples)", "setting": "[7]", "value": 0.8716, "unit": "mg/mL"}]}]}
